Results deposited as PubChem BioAssay AID652272 (Drosophila RNAi Screening Center, 2013).

Assay: 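Genome-wide knock-down search for components of Hedgehog signalling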 (primary screen)
Cell system: Drosophila clone 8 (Cl8) cells
Knock-down reagent: long dsRNA against Drosophila genes
Detection: 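Plate reader light from a firefly reporter under a ptc promoter fragment that responds to Hedgehog, with Renilla light as transfection reference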
Scale: firefly Hh reporter signal: higher = more ptc reporter light; Renilla reference signal: higher = more Renilla control light
Hit rule: 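Hit when the z-score averaged over two replicates is under -2 or over +3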
Calls: active = hit: reporter lowered or raised; inactive = not a hit
In all, the deposit lists about 21,000 reagents; this is an unselected part of those that have a named target and a result. In the full data, 503 (2.4%) are marked active. 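Raw plate light values, not normalised; calls rest on replicate z-scores that were not deposited; hits include reporter decreases as well as increases.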 The numbers tell different reagents against one gene apart. No sequences are given here. Not given: the amount of reagent, the time to read-out.

no.	target	reagent	firefly Hh reporter signal, replicate 1	firefly Hh reporter signal, replicate 2	firefly Hh reporter signal, replicate 3	Renilla reference signal, replicate 1	Renilla reference signal, replicate 2	call
1	Cul2	1	1.05e5	88859		4044	3665	inactive
2	dyw	1	61572	2.06e5		1841	8187	inactive
3	Sb	1	99383	95714		3520	5850	inactive
4	Mes2	1	2.06e5			3592		inactive
5	Mes2	2	1.02e5	5.64e5	75224	3024	28036	inactive
6	Nep4	1	1.01e5	54104		4521	2048	inactive
7	Ras64B	1	78519	32885		2832	2592	inactive
8	CG5267	1	1.15e5	34216		3051	2288	inactive
9	CG1142	1	1.33e5	1.61e5		4087	5496	inactive
10	Wdr81	1	63200	48704		3073	2400	inactive
11	CG10165	1	82642	59741		3984	2736	inactive
12	CG10226	1	67153	61466		3129	2521	inactive
13	CG7320	1	1.53e5			2003	4424	inactive
14	Srlp	1	35462	78261		807	3590	inactive
15	GstE12	1	80070	50832		2106	3056	inactive
16	CG8860	1	1.12e5	61355		3082	5385	inactive
17	ktub	1	1.05e5	55842		4087	2265	inactive
18	CG32473	1	1.03e5	82832		2748	1992	inactive
19	CG32473	2	1.97e5	1.10e5		7629	2618	inactive
20	amx	1	38869	1.32e5		1562	5986	inactive
21	CG13155	1	92836	87571		2370	6441	inactive
22	CG42855	1	1.08e5	68665		2965	5173	inactive
23	Cals	1	1.69e5	1.45e5		3965	4630	inactive
24	CG31928	1	88624	1.10e5		4256	4487	inactive
25	CG7275	1	98640	59424		3916	2684	inactive
26	CG3776	1	70304	79691		2054	3122	inactive
27	MED28	1	6.25e5	75738		32416	410	inactive
28	dwg	1	94230	81440		1600	2429	inactive
29	CG6295	1	1.26e5	97542		4208	2794	inactive
30	CG31141	1	49156	2.52e5		12278	5911	inactive
31	CG5913	1	5.60e5	1.08e5		30352	2832	inactive
32	Gbeta13F	1	92518	61901		2185	1537	inactive
33	lambdaTry	1	1.38e5	51420		3527	4025	inactive
34	Rbm13	1	63190	2.00e5		1834	12139	inactive
35	prim	1	79821	73371		2042	4118	inactive
36	CG12268	1	5.24e5	76979		25432	2374	inactive
37	Dro	1	1.39e5	85510		3616	6137	inactive
38	CG15547	1	1.21e5	1.34e5		4272	3658	inactive
39	CG1824	1	1.04e5	3.56e5		3331	11035	inactive

A stretch taken from the entries so far:
no.	target	reagent	firefly Hh reporter signal, replicate 1	firefly Hh reporter signal, replicate 2	firefly Hh reporter signal, replicate 3	Renilla reference signal, replicate 1	Renilla reference signal, replicate 2	call
2	dyw	1	61572	2.06e5		1841	8187	inactive
3	Sb	1	99383	95714		3520	5850	inactive
4	Mes2	1	2.06e5			3592		inactive
5	Mes2	2	1.02e5	5.64e5	75224	3024	28036	inactive
6	Nep4	1	1.01e5	54104		4521	2048	inactive
